Measurements taken from patent publication US20220041711A1.
Results are given in words; binding and its absence hold for the method and conditions named. Some entries that bind do so weakly or less than the wild type. Sequences can lack the tags named with a protein.

Protein sequences, listed by entry. Tags and fused reporters are not part of them.
UniProt Q9UMD9: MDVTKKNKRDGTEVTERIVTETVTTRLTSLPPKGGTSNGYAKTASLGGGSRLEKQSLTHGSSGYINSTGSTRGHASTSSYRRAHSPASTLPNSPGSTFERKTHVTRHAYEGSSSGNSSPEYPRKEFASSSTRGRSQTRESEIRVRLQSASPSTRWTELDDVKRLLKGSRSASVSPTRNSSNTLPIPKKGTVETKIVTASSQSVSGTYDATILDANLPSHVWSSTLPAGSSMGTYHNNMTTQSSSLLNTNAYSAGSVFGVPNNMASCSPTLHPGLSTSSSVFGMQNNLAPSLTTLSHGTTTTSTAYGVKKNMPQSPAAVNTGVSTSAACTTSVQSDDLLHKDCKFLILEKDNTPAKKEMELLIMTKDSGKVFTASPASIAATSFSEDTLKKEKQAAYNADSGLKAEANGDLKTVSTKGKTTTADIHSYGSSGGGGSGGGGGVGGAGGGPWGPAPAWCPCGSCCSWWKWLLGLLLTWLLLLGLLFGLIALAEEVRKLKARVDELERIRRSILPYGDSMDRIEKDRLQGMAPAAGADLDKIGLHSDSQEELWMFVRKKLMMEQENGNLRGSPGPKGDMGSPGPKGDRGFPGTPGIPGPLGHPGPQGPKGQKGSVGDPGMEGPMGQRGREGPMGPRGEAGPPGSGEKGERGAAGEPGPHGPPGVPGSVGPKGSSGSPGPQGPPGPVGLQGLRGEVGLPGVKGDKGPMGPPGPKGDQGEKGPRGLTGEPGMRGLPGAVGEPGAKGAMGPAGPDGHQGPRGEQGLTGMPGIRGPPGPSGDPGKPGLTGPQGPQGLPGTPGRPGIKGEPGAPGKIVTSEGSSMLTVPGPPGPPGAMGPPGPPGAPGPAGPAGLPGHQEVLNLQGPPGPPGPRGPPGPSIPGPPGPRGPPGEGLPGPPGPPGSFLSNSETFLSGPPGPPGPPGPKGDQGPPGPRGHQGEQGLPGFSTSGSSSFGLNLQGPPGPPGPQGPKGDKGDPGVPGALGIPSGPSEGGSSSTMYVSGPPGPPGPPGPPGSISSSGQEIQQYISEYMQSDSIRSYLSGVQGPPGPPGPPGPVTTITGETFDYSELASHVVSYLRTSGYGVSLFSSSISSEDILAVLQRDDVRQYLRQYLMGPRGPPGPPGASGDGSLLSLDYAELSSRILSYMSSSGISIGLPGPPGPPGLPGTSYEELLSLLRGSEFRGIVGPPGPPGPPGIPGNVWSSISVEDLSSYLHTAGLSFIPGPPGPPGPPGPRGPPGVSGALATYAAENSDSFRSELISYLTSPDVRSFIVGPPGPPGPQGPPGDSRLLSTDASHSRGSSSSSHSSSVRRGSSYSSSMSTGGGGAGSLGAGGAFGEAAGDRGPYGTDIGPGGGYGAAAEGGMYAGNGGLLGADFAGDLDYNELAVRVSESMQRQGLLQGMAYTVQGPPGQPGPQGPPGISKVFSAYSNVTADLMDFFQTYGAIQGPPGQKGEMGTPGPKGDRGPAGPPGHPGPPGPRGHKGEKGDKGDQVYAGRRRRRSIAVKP

Experiments:
[1] = molecular target: collagen 17A1 (COL17A1) expressed on 721.221 cells (UniProt Q9UMD9); assay: flow cytometry, Fc fusion at 10 µg/mL on transduced 721.221 cells
[2] = molecular target: collagen 17A1 (COL17A1) expressed on 721.221 cells (UniProt Q9UMD9); assay: flow cytometry, Fc protein at 10 µg/mL on 721.221 cells expressing COL17A1, PE anti-Fc secondary

Binder	binding [1]	binding [2]
human LAIR-1-Fc (Fc fusion, not shown: a dimerising Fc or GST) QEEDLPRPSISAEPGTVIPLGSHVTFVCRGPVGVQTFRLERESRSTYNDTEDVSQASPSESEARFRIDSVSEGNAGPYRCIYYKPPKWSEQSDYLELLVKETSGGPDSPDTEPGSSAGPTQRPSDNSHNEHAPASQGLKAEHLY	binds	binds
LAIR-2-Fc (Fc fusion, not shown: a dimerising Fc or GST) QEGALPRPSISAEPGTVISPGSHVTFMCRGPVGVQTFRLEREDRAKYKDSYNVFRLGPSESEARFHIDSVSEGNAGLYRCLYYKPPGWSEHSDFLELLVKESSGGPDSPDTEPGSSAGTVPGTEASGFDAP	binds	binds
